Article PMC11103130
These are yes or no findings as the source states them, for the method shown. In cells and extracts the contact can be indirect. These calls come from enrichment with a bait or labelling near it, and not all partners need be listed.

By UniProt entry, the sequences of proteins in these tests, tags left out.
UniProt P51608: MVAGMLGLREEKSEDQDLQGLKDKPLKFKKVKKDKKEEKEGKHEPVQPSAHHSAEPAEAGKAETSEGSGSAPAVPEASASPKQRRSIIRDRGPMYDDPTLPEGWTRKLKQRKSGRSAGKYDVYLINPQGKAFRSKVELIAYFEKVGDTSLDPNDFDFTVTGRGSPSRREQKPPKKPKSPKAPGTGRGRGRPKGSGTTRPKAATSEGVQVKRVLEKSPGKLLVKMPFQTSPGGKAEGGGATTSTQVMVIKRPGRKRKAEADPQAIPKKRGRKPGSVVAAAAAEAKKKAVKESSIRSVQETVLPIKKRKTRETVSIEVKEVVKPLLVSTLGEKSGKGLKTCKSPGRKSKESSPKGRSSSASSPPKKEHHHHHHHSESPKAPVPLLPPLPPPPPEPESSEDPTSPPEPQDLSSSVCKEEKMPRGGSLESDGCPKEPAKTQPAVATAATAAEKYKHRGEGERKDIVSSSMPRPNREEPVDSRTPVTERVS

Biological target: T1, SPESP1 overexpressed in HDFs (lentivirus encoding full-length SPESP1 cDNA) (UniProt Q6UW49)
T1 sequence: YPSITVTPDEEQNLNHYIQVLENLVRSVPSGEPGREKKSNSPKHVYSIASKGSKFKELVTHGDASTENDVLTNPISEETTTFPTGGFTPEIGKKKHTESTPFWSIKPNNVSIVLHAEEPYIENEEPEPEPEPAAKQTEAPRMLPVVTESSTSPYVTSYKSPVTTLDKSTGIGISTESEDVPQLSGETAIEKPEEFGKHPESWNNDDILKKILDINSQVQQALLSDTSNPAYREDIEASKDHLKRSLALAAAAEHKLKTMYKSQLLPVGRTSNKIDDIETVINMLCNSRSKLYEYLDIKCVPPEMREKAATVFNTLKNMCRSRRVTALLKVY
Assay: affinity purification with mass spectrometry; SPESP1 overexpressed in HDFs; lysates immunoprecipitated with an anti-SPESP1 antibody; eluents analysed by LC-MS/MS

methyl-CpG-binding protein 2 (MeCP2), endogenous (from UniProt P51608 1-486)
binding: binds
